Values as published with doi:10.1371/journal.pone.0140310, rounded.

Compounds and concentrations:
PLX4720, 0.08 µM: CCCS(=O)(=O)Nc1ccc(F)c(C(=O)c2c[nH]c3ncc(Cl)cc23)c1F
KU-55933, 1 µM: O=c1cc(-c2cccc3c2Sc2ccccc2S3)oc(N2CCOCC2)c1
pioglitazone, 2 µM: CCc1ccc(CCOc2ccc(CC3SC(=O)NC3=O)cc2)nc1 (stereo not drawn)
VX-702, 0.4 µM: NC(=O)c1ccc(N(C(N)=O)c2c(F)cccc2F)nc1-c1ccc(F)cc1F
bexarotene, 2 µM: C=C(c1ccc(C(=O)O)cc1)c1cc2c(cc1C)C(C)(C)CCC2(C)C
A-769662, 2 µM: N#Cc1c(O)c2c(-c3ccc(-c4ccccc4O)cc3)csc2[nH]c1=O
JZL184, 1 µM: O=C(Oc1ccc([N+](=O)[O-])cc1)N1CCC(C(O)(c2ccc3c(c2)OCO3)c2ccc3c(c2)OCO3)CC1
GW0742, 2 µM: Cc1cc(SCc2sc(-c3ccc(C(F)(F)F)c(F)c3)nc2C)ccc1OCC(=O)O
XAV939, 2 µM: Oc1nc(-c2ccc(C(F)(F)F)cc2)nc2c1CSCC2
lestaurtinib, 0.004 µM: C[C@]12O[C@H](C[C@]1(O)CO)n1c3ccccc3c3c4c(c5c6ccccc6n2c5c31)CNC4=O

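The test systems are human melanoma cell lines, treated with a pair of drugs for 72 h and then stained and imaged. The read-out is cell count (nuclei) in % of the DMSO control; lower values mean stronger growth inhibition or killing. Every drug was used at one fixed concentration, the lower of two screened (a fifth of the higher). No replicate spread is given; individual values may be noisy.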 Only some of the drugs and lines screened are listed, without regard to their results. A dash means that no value is listed here.

Combination,A101D,A375,501mel,C32,A2058
PLX4720 and KU-55933,89.8,-,94.6,71.5,99.3
lestaurtinib and A-769662,86.6,-,73.6,109,106
pioglitazone and lestaurtinib,86.5,-,68.2,105,102
bexarotene and XAV939,1.7,-,97.9,114,83.5
GW0742 and bexarotene,107,-,90.0,112,106
GW0742 and VX-702,93.9,-,77.8,107,92.7
bexarotene and KU-55933,119,-,120,104,105
A-769662 and VX-702,96.9,-,73.9,104,101
JZL184 and VX-702,91.1,-,85.7,91.3,90.8
XAV939 and VX-702,88.8,-,-,107,75.3
bexarotene and pioglitazone,95.3,-,99.7,133,76.3
GW0742 and PLX4720,86.7,-,86.5,94.2,110
lestaurtinib and XAV939,85.7,-,89.1,98.0,93.6
lestaurtinib and JZL184,89.2,-,102,90.7,93.5
A-769662 and XAV939,95.6,99.8,91.9,116,90.5
GW0742 and lestaurtinib,94.6,-,74.8,91.0,120
pioglitazone and VX-702,84.0,-,-,110,93.1
bexarotene and JZL184,89.8,-,113,92.0,94.7
KU-55933 and VX-702,108,-,89.8,104,108